Chains of the proteins cited; added tags and fusions are not shown. Lines headed by an entry give the natural chain unless they say otherwise; changes in a name come on top.
UniProt P43235: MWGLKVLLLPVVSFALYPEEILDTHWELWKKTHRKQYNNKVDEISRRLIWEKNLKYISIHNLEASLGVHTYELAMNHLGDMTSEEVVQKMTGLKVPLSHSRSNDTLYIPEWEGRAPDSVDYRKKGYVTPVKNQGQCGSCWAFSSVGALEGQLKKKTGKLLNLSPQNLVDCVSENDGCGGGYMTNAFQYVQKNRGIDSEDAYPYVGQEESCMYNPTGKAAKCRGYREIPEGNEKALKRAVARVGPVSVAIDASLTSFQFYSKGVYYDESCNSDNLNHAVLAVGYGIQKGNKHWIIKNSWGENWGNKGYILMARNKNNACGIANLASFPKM
UniProt P84022: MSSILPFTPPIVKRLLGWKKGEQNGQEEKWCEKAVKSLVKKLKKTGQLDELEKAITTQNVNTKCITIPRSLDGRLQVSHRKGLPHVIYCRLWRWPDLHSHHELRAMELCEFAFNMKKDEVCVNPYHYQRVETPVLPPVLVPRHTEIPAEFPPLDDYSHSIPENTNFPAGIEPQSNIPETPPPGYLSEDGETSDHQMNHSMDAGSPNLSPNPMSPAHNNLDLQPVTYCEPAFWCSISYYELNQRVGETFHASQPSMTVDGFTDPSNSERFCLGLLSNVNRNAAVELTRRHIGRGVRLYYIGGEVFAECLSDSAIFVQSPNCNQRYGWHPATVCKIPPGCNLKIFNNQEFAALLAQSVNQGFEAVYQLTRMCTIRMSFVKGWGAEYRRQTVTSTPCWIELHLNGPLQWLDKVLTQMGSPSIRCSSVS

According to PMC12442634:

Molecular target: recombinant Cathepsin K (rCTSK), His-tagged (UniProt P43235)
Assay: co-IP; MRC-5 cells treated with or without TGF-β1 and rCTSK (0.1 µg/mL) for 24 h; precipitating antibody not told for this panel; only the target purified

Substance: phosphorylated SMAD3, endogenous in MRC-5 cells (from UniProt P84022 1-425)
- binding: binds

These are yes or no findings as the source states them, for the method shown. Binding seen in cells or lysates may run through a third protein. A result given as binding can be weak or reduced; the word gives no strength.
